Experimental data reported in publication PMC5112516.
For at least one entry, the source does not settle the construct or the ends of the probe. At least one verdict was read from the data and is not stated in words by the source. For some assays here: Protein sequences can lack the tags named with them.

What was measured:
Experiment in all cases: ELISA
Details in all cases: 200 nM protein, low salt; ELISA: 10 mM KH2PO4, 50 mM KCl, pH 7, 0.1% Tween 20; recombinant protein; protein details: N-term RGSHHHHHHGS after Met1, C-term LN; label: 3'-biotin on plus strand
[1] = biological target: Aho7c (Acidianus hospitalis) (UniProt F4B8X5)
Mcu7 = test system: Mcu7
[2] = biological target: Ssh7a (Sulfolobus shibatae) (UniProt P61990)
Sis7a = test system: Sis7a
[3] = biological target: Aho7a (Acidianus hospitalis) (UniProt F4B991)
Mse7 = test system: Mse7
[4] = biological target: Aho7b (Acidianus hospitalis) (UniProt F4B9I5)
Sis7b = test system: Sis7b
[5] = biological target: Sac7d (Sulfolobus acidocaldarius) (UniProt P13123)
Sto7 = test system: Sto7
[6] = biological target: Ssh7b (Sulfolobus shibatae) (UniProt O59632)
[7] = biological target: T1, Sac7e (Sulfolobus acidocaldarius) (UniProt P13125)
T1 sequence (looked up, limits assumed): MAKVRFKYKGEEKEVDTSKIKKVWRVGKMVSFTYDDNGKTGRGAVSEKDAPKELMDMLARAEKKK

[8] = biological target: Sso7d (Sulfolobus solfataricus) (UniProt P39476)

Measured: binding result

AGAGAGAGAGAGAGAGAGAGAGAGAGAGAGAGAGAGAGAG (double strand) [poly(dAdG).poly(dCdT) 40 bp]
binds: all assays above

ACACACACACACACACACACACACACACACACACACACAC (double strand) [poly(dAdC).poly(dGdT) 40 bp]
binds: all assays above

ATATATATATATATATATATATATATATATATATATATAT (double strand) [[poly(dAdT)]2 40 bp]
binds: all assays above

GCGCGCGCGCGCGCGCGCGCGCGCGCGCGCGCGCGCGCGC (double strand) [[poly(dGdC)]2 40 bp]
binds: all assays above

AAAAAAAAAAAAAAAAAAAAAAAAAAAAAAAAAAAAAAAA (double strand) [poly(dA).poly(dT) 40 bp]
binds: all assays above
